Source: PubChem BioAssay AID686943 (Drosophila RNAi Screening Center, 2013)
The screen tested about 23,000 reagents; this is an unselected part of those with a known target gene and a result. 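Extra replicates exist only for a retested subset of genes; insulin dose and duration not given; both raised and lowered dpERK matter.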 A plus sign joins genes that one reagent is predicted to hit. Further read-outs or replicates are left out here. Not stated in the record: the amount of reagent, the time to read-out.

- Assay: 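Knockdowns that increase or decrease active ERK after insulin receptor stimulation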 (primary screen)
- Cells: Drosophila S2R+ haemocyte-like cells expressing YFP-tagged ERK (Rolled)
- Knock-down reagent: long dsRNA against Drosophila genes
- Treatment: insulin stimulation versus unstimulated cells; dose and duration not given
- Measured: 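Antibody staining for doubly phosphorylated ERK divided by ERK-YFP signal, as plate z-scores, in insulin-treated and untreated cells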
- Reading the numbers: replicate 1, z-score of dpERK with insulin and replicate 2, z-score of dpERK with insulin: higher = more active ERK per ERK-YFP after insulin; replicate 1, z-score of dpERK under basal conditions: higher = more basal active ERK per ERK-YFP

predicted target	DRSC id	replicate 1, z-score of dpERK with insulin	replicate 2, z-score of dpERK with insulin	replicate 1, z-score of dpERK under basal conditions
CG14322 (GeneID 42124)	DRSC14801	0.33	-0.17	-0.73
Ccp84Ag (GeneID 40819)	DRSC12592	0.69	0.1	-0.67
Ccp84Ag (GeneID 40819)	DRSC22085	0.3	0.11	-0.08
CG6511 (GeneID 38997)	DRSC10656	-0.36	0.13	2.1
Cyp316a1 (GeneID 38840)	DRSC11130	-0.32	0.36	
CG7768 (GeneID 39573)	DRSC10914	-0.53	0.23	-0.65
CG32756 (GeneID 318193)	DRSC22505	-0.06	0.23	0.37
Adf1 (GeneID 47082)	DRSC04941	0.25	0.29	-0.75
Adf1 (GeneID 47082)	DRSC04963	2.41	2.82	-0.76
r + CG13012	DRSC19531	-0.35	-0.31	-0.24
CG5180 (GeneID 192508)	DRSC15731	1.02	0.68	0.09
GstE5 (GeneID 37110)	DRSC06675	0.61	0.09	1.03
CG6683 (GeneID 38970)	DRSC10694	0.84	0.48	0.22
Fancl (GeneID 41231)	DRSC14550	-0.54	0.77	-2.39
osp (GeneID 34850)	DRSC01409	-0.01	0.3	0.9
osp (GeneID 34850)	DRSC03585	0.52	0.53	-0.1
CG5498 (GeneID 40250)	DRSC11608	0.31	0.68	1
CG15186 (GeneID 40797)	DRSC12566	0.05	-0.09	0.18
pnt (GeneID 42757)	DRSC17028	-1.56	-5.57	-3.73
Josd (GeneID 31560)	DRSC18323	0.05	-0.36	0.7
CR13656 (GeneID 8674041)	DRSC13705	0.43	-0.28	2.51
CR13656 (GeneID 8674041)	DRSC14656	0.05	1.03	1
Mvl (GeneID 42490)	DRSC16752	-0.02	-0.1	1.67

Not a retest: entries from further up.
predicted target	DRSC id	replicate 1, z-score of dpERK with insulin	replicate 2, z-score of dpERK with insulin	replicate 1, z-score of dpERK under basal conditions
CG6511 (GeneID 38997)	DRSC10656	-0.36	0.13	2.1
Cyp316a1 (GeneID 38840)	DRSC11130	-0.32	0.36	
CG7768 (GeneID 39573)	DRSC10914	-0.53	0.23	-0.65
CG32756 (GeneID 318193)	DRSC22505	-0.06	0.23	0.37
Adf1 (GeneID 47082)	DRSC04941	0.25	0.29	-0.75
Adf1 (GeneID 47082)	DRSC04963	2.41	2.82	-0.76

The list goes on:
predicted target	DRSC id	replicate 1, z-score of dpERK with insulin	replicate 2, z-score of dpERK with insulin	replicate 1, z-score of dpERK under basal conditions
XNP (GeneID 43080)	DRSC15594	0.02	-0.46	-0.45
CG9631 (GeneID 41729)	DRSC14137	-0.04	-0.15	-0.7
caly (GeneID 36794)	DRSC07182	0.2	-0.48	-0.39
Tctp (GeneID 41341)	DRSC15649	-0.16	0.18	1.46
Vps35 (GeneID 37536)	DRSC04519	0.46	0.31	-0.76
CG9743 (GeneID 43593)	DRSC16552	-1.05	0	1.17
Kr (GeneID 38012)	DRSC04622	0.75	0.21	0.69
CG10801 (GeneID 31314)	DRSC17761	-0.8	1.08	1.59
CG31998 (GeneID 43774)	DRSC17137	0.48	-0.32	-0.11
CG31998 (GeneID 43774)	DRSC17138	0.06	0.05	-0.12
CG31128 (GeneID 318601)	DRSC13675	0.31	-0.05	0.99
CG5902 (GeneID 42839)	DRSC15912	0.31	0.57	0.4
lncRNA:iab4 (GeneID 3772110)	DRSC22331	0.41	1.05	0.09
CG42365 (GeneID 37469)	DRSC04266	-0.1	-0.51	0.01
Or33c (GeneID 34603)	DRSC03388	1.4	0.19	-1.97
CG7607 (GeneID 39263)	DRSC10889	0.02	0.12	-0.92
Sp7 (GeneID 40918)	DRSC15461	0.13	0.91	-0.27
dome (GeneID 32976)	DRSC19583	2.2	2.76	-0.13
CG43292 (GeneID 12798367)	DRSC08883	0.24	0.08	-0.09
CG43292 (GeneID 12798367)	DRSC21542	0.29	0.92	0.09
pyx (GeneID 38037)	DRSC08510	0.12	0.61	0.42
pyx (GeneID 38037)	DRSC08511	-1.73	-0.98	0.73
CG13148 (GeneID 36398)	DRSC06275	1.11	1.39	0.84
sinah (GeneID 39885)	DRSC09910	0.3	-0.03	0.25
sinah (GeneID 39885)	DRSC22181	-0.15	-0.18	-0.05
Rad51D (GeneID 35937)	DRSC06840	0.09	0.37	0.43
CG32669 (GeneID 326229)	DRSC18864	0.81	1.38	0.69
CG30091 (GeneID 246449)	DRSC21809	-3.4	1.34	1.81
CG34196 (GeneID 5740437)	DRSC05704	0.73	0.45	-0.02
CG7568 (GeneID 43482)	DRSC16259	0.66	0.05	-0.56
CG4998 (GeneID 39808)	DRSC10466	0.33	0.68	0.54
CG4998 (GeneID 39808)	DRSC22911	0.54	0.83	-0.57
CG2336 (GeneID 40804)	DRSC12581	0.86	-0.03	-0.15
Kdm3 (GeneID 41143)	DRSC16393	0.02	0.17	-0.07
